These are yes or no findings as the source states them, for the method shown. In cells and extracts the contact can be indirect. A result given as binding can be weak or reduced; the word gives no strength.

Assay [1] concerns the target WRB (K164L)-HA-NFT-Venus (UniProt O00258). Nature of the assay: co-IP.
In assay [2] the target is WRB (K164D)-HA-NFT-Venus (UniProt O00258). Kind of assay: co-IP.

As to BiP (from UniProt P11021 19-654), the binding result in assay [1] is “binds weakly”; in assay [2], “binds”.
Taken in the same sequence, the figures for “Hrd1 E3 ligase (from UniProt Q86TM6 1-617) (enzyme)” were “no binding” and “binds”.

The values are drawn from paper doi:10.1101/843326.
